# Experimental data from ChEMBL document CHEMBL1157379, “Transcriptional response of Candida parapsilosis following exposure to farnesol” (2007).
# This continues a long series; more values of the same kind are listed elsewhere.
# Key:
# Assay type in all cases: functional
# [1] = system: Candida parapsilosis; assay: Increase in CGD gene ortholog accession number orf19.2735 expression in Candida parapsilosis CLIB214 at 50 uM after 2 hrs by microarray based transcriptional profiling relative to control
# [2] = system: Candida parapsilosis; assay: Increase in CGD gene ortholog accession number orf19.1754 expression in Candida parapsilosis CLIB214 at 50 uM after 2 hrs by microarray based transcriptional profiling relative to control
# [3] = system: Candida parapsilosis; assay: Decrease in CGD gene ortholog accession number orf19.1943 expression in Candida parapsilosis CLIB214 at 50 uM after 2 hrs by microarray based transcriptional profiling relative to control
# [4] = system: Candida parapsilosis; assay: Decrease in CGD gene ortholog accession number orf19.21 expression in Candida parapsilosis CLIB214 at 50 uM after 2 hrs by microarray based transcriptional profiling relative to control
# [5] = system: Candida parapsilosis; assay: Decrease in CGD gene ortholog accession number orf19.2342 expression in Candida parapsilosis CLIB214 at 50 uM after 2 hrs by microarray based transcriptional profiling relative to control
# [6] = system: Candida parapsilosis; assay: Increase in CGD gene ortholog accession number orf19.6766 expression in Candida parapsilosis CLIB214 at 50 uM after 2 hrs by microarray based transcriptional profiling relative to control
# [7] = system: Candida parapsilosis; assay: Increase in CGD gene ortholog accession number orf19.3100 expression in Candida parapsilosis CLIB214 at 50 uM after 2 hrs by microarray based transcriptional profiling relative to control
# [8] = system: Candida parapsilosis; assay: Increase in ARG2 gene expression in Candida parapsilosis CLIB214 at 50 uM after 2 hrs by microarray based transcriptional profiling relative to control
# [9] = system: Candida parapsilosis; assay: Increase in CGD gene ortholog accession number orf19.6843 expression in Candida parapsilosis CLIB214 at 50 uM after 2 hrs by microarray based transcriptional profiling relative to control
# [10] = system: Candida parapsilosis; assay: Increase in CGD gene ortholog accession number orf19.4681 expression in Candida parapsilosis CLIB214 at 50 uM after 2 hrs by microarray based transcriptional profiling relative to control
# [11] = system: Candida parapsilosis; assay: Increase in ERG4 gene expression in Candida parapsilosis CLIB214 at 50 uM after 2 hrs by microarray based transcriptional profiling relative to control
# [12] = system: Candida parapsilosis; assay: Decrease in CGD gene ortholog accession number orf19.5253 expression in Candida parapsilosis CLIB214 at 50 uM after 2 hrs by microarray based transcriptional profiling relative to control
# [13] = system: Candida parapsilosis; assay: Decrease in CGD gene ortholog accession number orf19.1219 expression in Candida parapsilosis CLIB214 at 50 uM after 2 hrs by microarray based transcriptional profiling relative to control
# [14] = system: Candida parapsilosis; assay: Decrease in CGD gene ortholog accession number orf19.1500 expression in Candida parapsilosis CLIB214 at 50 uM after 2 hrs by microarray based transcriptional profiling relative to control
# [15] = system: Candida parapsilosis; assay: Increase in HTA3 gene expression in Candida parapsilosis CLIB214 at 50 uM after 2 hrs by microarray based transcriptional profiling relative to control
# [16] = system: Candida parapsilosis; assay: Increase in CGD gene ortholog accession number orf19.7261 expression in Candida parapsilosis CLIB214 at 50 uM after 2 hrs by microarray based transcriptional profiling relative to control
# [17] = system: Candida parapsilosis; assay: Decrease in RPN3 gene expression in Candida parapsilosis CLIB214 at 50 uM after 2 hrs by microarray based transcriptional profiling relative to control
# [18] = system: Candida parapsilosis; assay: Decrease in CGD gene ortholog accession number orf19.5780 expression in Candida parapsilosis CLIB214 at 50 uM after 2 hrs by microarray based transcriptional profiling relative to control
# [19] = system: Candida parapsilosis; assay: Decrease in CGD gene ortholog accession number orf19.1850 expression in Candida parapsilosis CLIB214 at 50 uM after 2 hrs by microarray based transcriptional profiling relative to control
# [20] = system: Candida parapsilosis; assay: Increase in TUF1 gene expression in Candida parapsilosis CLIB214 at 50 uM after 2 hrs by microarray based transcriptional profiling relative to control
# [21] = system: Candida parapsilosis; assay: Increase in RPN2 gene expression in Candida parapsilosis CLIB214 at 50 uM after 2 hrs by microarray based transcriptional profiling relative to control
# [22] = system: Candida parapsilosis; assay: Increase in CGD gene ortholog accession number orf19.5612 expression in Candida parapsilosis CLIB214 at 50 uM after 2 hrs by microarray based transcriptional profiling relative to control
# [23] = system: Candida parapsilosis; assay: Increase in CGD gene ortholog accession number orf19.1954 expression in Candida parapsilosis CLIB214 at 50 uM after 2 hrs by microarray based transcriptional profiling relative to control
# [24] = system: Candida parapsilosis; assay: Increase in ACH1 gene expression in Candida parapsilosis CLIB214 at 50 uM after 2 hrs by microarray based transcriptional profiling relative to control
# [25] = system: Candida parapsilosis; assay: Increase in CGD gene ortholog accession number orf19.4931 expression in Candida parapsilosis CLIB214 at 50 uM after 2 hrs by microarray based transcriptional profiling relative to control
# [26] = system: Candida parapsilosis; assay: Decrease in CGD gene ortholog accession number orf19.5920 expression in Candida parapsilosis CLIB214 at 50 uM after 2 hrs by microarray based transcriptional profiling relative to control
# [27] = system: Candida parapsilosis; assay: Decrease in CGD gene ortholog accession number orf19.273 expression in Candida parapsilosis CLIB214 at 50 uM after 2 hrs by microarray based transcriptional profiling relative to control
# [28] = system: Candida parapsilosis; assay: Decrease in CGD gene ortholog accession number orf19.6488 expression in Candida parapsilosis CLIB214 at 50 uM after 2 hrs by microarray based transcriptional profiling relative to control
# [29] = system: Candida parapsilosis; assay: Decrease in CGD gene ortholog accession number orf19.4376 expression in Candida parapsilosis CLIB214 at 50 uM after 2 hrs by microarray based transcriptional profiling relative to control
# [30] = system: Candida parapsilosis; assay: Increase in GenBank accession number XP_460627.1 expression in Candida parapsilosis CLIB214 at 50 uM after 2 hrs by microarray based transcriptional profiling relative to control
# [31] = system: Candida parapsilosis; assay: Increase in BGL2 gene expression in Candida parapsilosis CLIB214 at 50 uM after 2 hrs by microarray based transcriptional profiling relative to control
# [32] = system: Candida parapsilosis; assay: Decrease in GenBank accession number XP_457517.1 expression in Candida parapsilosis CLIB214 at 50 uM after 2 hrs by microarray based transcriptional profiling relative to control
# [33] = system: Candida parapsilosis; assay: Decrease in CGD gene ortholog accession number orf19.4898 expression in Candida parapsilosis CLIB214 at 50 uM after 2 hrs by microarray based transcriptional profiling relative to control
# [34] = system: Candida parapsilosis; assay: Increase in CGD gene ortholog accession number orf19.1195 expression in Candida parapsilosis CLIB214 at 50 uM after 2 hrs by microarray based transcriptional profiling relative to control
# [35] = system: Candida parapsilosis; assay: Increase in DAL9 gene expression in Candida parapsilosis CLIB214 at 50 uM after 2 hrs by microarray based transcriptional profiling relative to control
# [36] = system: Candida parapsilosis; assay: Increase in CGD gene ortholog accession number orf19.813 expression in Candida parapsilosis CLIB214 at 50 uM after 2 hrs by microarray based transcriptional profiling relative to control
smiles,measurement,setting,value
CC(C)=CCC/C(C)=C/CC/C(C)=C/CO [FARNESOL],fold change (FC),[1],2.02
same,fold change (FC),[2],2.04
same,fold change (FC),[3],2.09
same,fold change (FC),[4],1.95
same,fold change (FC),[5],1.96
same,fold change (FC),[6],1.76
same,fold change (FC),[7],1.57
same,fold change (FC),[8],1.56
same,fold change (FC),[9],1.56
same,fold change (FC),[10],1.55
same,fold change (FC),[11],1.54
same,fold change (FC),[12],1.59
same,fold change (FC),[13],1.6
same,fold change (FC),[14],1.67
same,fold change (FC),[15],1.9
same,fold change (FC),[16],1.84
same,fold change (FC),[17],1.61
same,fold change (FC),[18],1.62
same,fold change (FC),[19],1.62
same,fold change (FC),[20],3.88
same,fold change (FC),[21],1.69
same,fold change (FC),[22],1.62
same,fold change (FC),[23],1.68
same,fold change (FC),[24],1.67
same,fold change (FC),[25],1.54
same,fold change (FC),[26],1.51
same,fold change (FC),[27],1.54
same,fold change (FC),[28],1.83
same,fold change (FC),[29],1.83
same,fold change (FC),[30],2.54
same,fold change (FC),[31],2.4
same,fold change (FC),[32],1.86
same,fold change (FC),[33],1.87
same,fold change (FC),[34],1.6
same,fold change (FC),[35],1.6
same,fold change (FC),[36],1.59
